Experimental data: PubChem BioAssay AID1671195 (Yale University, 2021)

- Screen: 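Knockdowns that increase or decrease uptake of fluorescent LDL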 (primary screen)
- Cells: human Huh7 hepatoma cells
- Reagent: siRNA pool against human genes, 18 nM
- Time to read-out: about 2 to 2.5 days of knockdown, then 8 h LDL uptake
- Challenge: DiI-labelled LDL at 30 µg/ml for 8 h, in lipoprotein-deficient serum medium
- Measurement: 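Fluorescent LDL signal imaged in cells, scaled to the plate median, robust z-score for each replicate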
- Scale: robust z-score: higher = more LDL uptake after knockdown
- Call rule: 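a gene counts as active if at least two replicate z-scores exceed ±2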
This is an unselected part of about 22,000 deposited reagents. Over the whole deposit, about 1,510 (6.9%) got an active call. 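Active includes knockdowns raising or lowering LDL uptake; positive z-scores mean more uptake, negative mean less.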

The first 2 records as a preview:
gene | PubChem SID | robust z-score, replicate 1 | robust z-score, replicate 2 | robust z-score, replicate 3 | call
LEP (leptin) | SID442902795 | -1.14 | -1.38 | -0.924 | inactive
UBE2H (ubiquitin conjugating enzyme E2 H) | SID442889366 | 1.14 | -0.444 | 1.02 | inactive

The listing, from the start:
gene | PubChem SID | robust z-score, replicate 1 | robust z-score, replicate 2 | robust z-score, replicate 3 | call
LEP (leptin) | SID442902795 | -1.14 | -1.38 | -0.924 | inactive
UBE2H (ubiquitin conjugating enzyme E2 H) | SID442889366 | 1.14 | -0.444 | 1.02 | inactive
ZNF488 (zinc finger protein 488) | SID442902418 | -1.02 | -1.05 | -1.14 | inactive
RUNX1T1 (RUNX1 partner transcriptional co-repressor 1) | SID442883521 | 2.54 | 3.22 | 2.45 | active
LOC388353 (retired record) | SID442885339 | 1.25 | 1.54 | 1.88 | inactive
TFF3 (trefoil factor 3) | SID442898233 | -1.12 | -0.34 | 0.0287 | inactive
GBP3 (guanylate binding protein 3) | SID442883122 | 6.41 | 4.61 | 4.32 | active
ESYT3 (extended synaptotagmin 3) | SID442904692 | -1.72 | -1.72 | -1.99 | inactive
B3GLCT (beta 3-glucosyltransferase) | SID442887615 | 1.05 | -0.0215 | 1.6 | inactive
NSMCE3 (NSE3 component of SMC5/6 complex) | SID442885797 | 2.31 | 1.53 | 0.256 | inactive
FASTKD5 (FASTK mitochondrial RNA regulator 5) | SID442885006 | 1.41 | 2.27 | 1.51 | inactive
SYT16 (synaptotagmin 16) | SID442895917 | 0.121 | -0.227 | -0.554 | inactive
LOC389178 (retired record) | SID442888312 | 1.06 | 0.741 | 0.434 | inactive
LRIT3 (leucine rich repeat, Ig-like and transmembrane domains 3) | SID442885405 | 1.35 | 1.18 | 2.05 | inactive
LOC441894 (retired record) | SID442884525 | -2.04 | -2.65 | -2.28 | active
RARB (retinoic acid receptor beta) | SID442899860 | -0.318 | -0.978 | -0.743 | inactive
LOC401490 (retired record) | SID442888967 | 1.27 | 0.226 | 0.403 | inactive
BLVRA (biliverdin reductase A) | SID442893806 | 0.0106 | 0.462 | -0.447 | inactive
NOL6 (nucleolar protein 6) | SID442895091 | 0.0715 | -0.691 | 0.223 | inactive
PLAAT2 (phospholipase A and acyltransferase 2) | SID442898786 | -1.27 | -0.0964 | -0.247 | inactive
NUDT9 (nudix hydrolase 9) | SID442899597 | -0.761 | -0.641 | -0.523 | inactive
DDX3X (DEAD-box helicase 3 X-linked) | SID442897215 | 0.431 | -1.29 | -0.22 | inactive
FAM194C (family with sequence similarity 194 member C) | SID442893818 | -0.543 | 0.15 | 0.414 | inactive
LOC442652 (retired record) | SID442896815 | 0.281 | -0.494 | -0.733 | inactive
RAP2B (RAP2B, member of RAS oncogene family) | SID442887602 | 0.725 | -0.0467 | 1.96 | inactive
MYOM3 (myomesin 3) | SID442896648 | 0.582 | -0.815 | -0.657 | inactive
LOC343705 (retired record) | SID442890194 | 0.351 | 0.556 | 0.445 | inactive
ATP5PO (ATP synthase peripheral stalk subunit OSCP) | SID442894556 | -0.141 | 0.0172 | -0.1 | inactive
